# In PubChem BioAssay AID504467 (National Center for Advancing Translational Sciences (NCATS), 2011):
# Screen size: about 330,000 compounds; about 7,700 (2.3%) were called active. The inconclusive results got no clear call from the source; some entries with a clear call stand among them for comparison. Calls come from the whole dose curve; as a rule, active = well fitted inhibition curve with a large enough effect; inconclusive = small, poorly fitted or top-dose-only effect, or effect the other way; inactive = flat fitted curve, though single readings scatter. Potencies beside an inconclusive call are fits to weak or partial responses and may not hold up.
# Test: qHTS screen for small molecules that inhibit ELG1-dependent DNA repair in human embryonic kidney (HEK293T) cells expressing luciferase-tagged ELG1; note: nearly all actives have a fitted effect of over 55% in size
# Settings: HEK293T ELG1-luciferase reporter, luminescence, 16 h, DNA damage induced by 5-fluorouridine; series mostly up to 46.1 µM
# Summary of the method: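 Cells (2,000 per well) received 5-fluorouridine plus test compound or DMSO and were incubated 16 hr at 37 °C, 5% CO2. Luciferase activity was read by luminescence 30 min after ONE-Glo addition; signal suppression marked inhibition of damage-induced ELG1 function.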
# Potency is the fitted concentration of half-maximal effect.
row,SMILES,Potency
1,CC1CC(c2ccccc2)=Nc2ccccc2N1 (centres undefined),"inconclusive: 23.1 µM [activator, partial curve]"
2,C/C(=N\NS(=O)(=O)c1ccc([N+](=O)[O-])cc1)c1ccc(NC(=O)c2ccco2)cc1,"inconclusive: 23.1 µM [activator, partial curve]"
3,O=S(=O)(c1cccs1)N1CCN(c2ccc(O)cc2)CC1,active: 1.64 µM
4,COc1ccc(Cl)cc1NC(=O)CSc1nnc(C2CC2)n1N,inactive
5,CCCCOc1ccc(C(=O)Oc2cc(C)[nH]c(=O)c2[N+](=O)[O-])cc1,inactive
6,O=C(O)CC/C(=N\Nc1ccc(Cl)cc1)c1cccs1,inactive
7,CCSc1nnc(NC(=O)CSc2nc3c(c(=O)n2CC)SC(C)C3)s1 (centres undefined),"inconclusive: 29.1 µM [inhibitor, partial curve, poor fit]"
8,Cc1c(Cl)cccc1NC(=S)Nc1ccc2[nH]c(=O)[nH]c2c1,inactive
9,Cc1cc2nc(-c3ccc(SCC(=O)N4CCN(C(=O)c5ccco5)CC4)nc3)[nH]c2cc1C,"inconclusive: 14.6 µM [inhibitor, partial curve, poor fit]"
10,CCOc1cc(-c2nnc(-c3ccco3)o2)cc(OCC)c1OCC,"inconclusive: 20.6 µM [inhibitor, single point]"
11,CC(C)C[C@@]12C(=O)N(c3ccc(Br)cc3)C(=O)N1[C@H](c1ccc(Br)cc1)[C@@H]1C(=O)N(C(C)(C)C)C(=O)[C@@H]12,inactive
12,COc1cccc(NC(=S)N2CCCC2c2ccc(OC)c(OC)c2)c1 (centres undefined),inactive
13,C/C(CC(=O)Nc1ccccn1)=N\NC(=O)c1ccccc1O,"inconclusive: 18.3 µM [activator, single point]"
14,COCCNCc1ccc(C(C)C)cc1,"inconclusive: 13 µM [activator, partial curve, poor fit]"
15,CCCCC(=O)Nc1cccc(NC(=O)c2ccc3c(c2)OCO3)c1,"inconclusive: 29.1 µM [inhibitor, single point]"
16,CN(CCCS(=O)(=O)[O-])c1ccc(/C=C/c2ccc3ccccc3[n+]2C)cc1,inactive
17,N#CC1=C(N)C2=CCCC[C@H]2[C@H](c2cccc(F)c2)C1(C#N)C#N,inactive
18,CCOC(=O)CC(c1ccc([N+](=O)[O-])cc1)n1c(C)ccc1C (centres undefined),"inconclusive: 20.6 µM [activator, partial curve, poor fit]"
19,CC(C)C(c1nnnn1Cc1ccc(F)cc1)N1CCN(Cc2ccc3c(c2)OCO3)CC1 (centres undefined),"inconclusive: 23.1 µM [inhibitor, single point]"
20,COC(=O)C1=C(C)OC(N)=C(C#N)C1c1ccco1 (centres undefined),"inconclusive: 10.3 µM [activator, partial curve, poor fit]"
21,CCN1CCN(c2ccc(S(=O)(=O)N3CCOCC3)cc2NC(=O)/C=C/c2cccc(OC)c2OC)CC1,inactive
22,O=C(COc1ccccc1N1C(=O)c2ccccc2C1=O)c1ccc(Cl)cc1,"inconclusive: 25.9 µM [activator, single point]"
23,COc1ccc(NC(=O)/C(Cl)=C(/Cl)S(=O)(=O)Cc2ccccc2)cn1,active: 18.4 µM
24,Cc1ccc(NC(=O)CCn2c(=O)c3cccn3c3ccccc32)cc1C,inactive
25,CCn1nc(NC(=O)c2cccnc2)c2cc3ccccc3nc21,"inconclusive: 20.6 µM [inhibitor, partial curve]"

# Structural class: the entries above containing fluorine
row,SMILES,Potency
17,N#CC1=C(N)C2=CCCC[C@H]2[C@H](c2cccc(F)c2)C1(C#N)C#N,inactive
19,CC(C)C(c1nnnn1Cc1ccc(F)cc1)N1CCN(Cc2ccc3c(c2)OCO3)CC1 (centres undefined),"inconclusive: 23.1 µM [inhibitor, single point]"

# Additional records:

row,SMILES,Potency
1,c1ccc(CCNc2cnccn2)cc1,"inconclusive: 23.1 µM [activator, single point]"
2,CCOC(=O)c1c(C)[nH]c(C2=NNC(=NC3CC3)SC2)c1C,"inconclusive: 0.291 µM [activator, full curve]"
3,CC(=O)Nc1ccc(SC[C@H](Cc2ccccc2)N2CC[C@@H](O)CCC2=O)cc1,inactive
4,CCc1noc(C)c1C(=O)Nc1nc2c(C)cc(C)cc2s1,inactive
5,Cc1cc(=O)oc2cc(OCC(=O)N3CCCC3)ccc12,inactive
6,Fc1cc2nc(-c3ccncc3)[nH]c2cc1F,"inconclusive: 5.17 µM [activator, single point]"
7,CC(C)c1ccc(S(=O)(=O)Nc2ccc3c(c2)OCO3)cc1,"inconclusive: 5.8 µM [inhibitor, partial curve]"
8,CSCCC(NC(=O)COc1ccccc1)C(=O)N1CCCC(C)C1 (centres undefined),inactive
9,CCC(=O)N1N=C(c2ccccc2)CC1c1ccccc1 (centres undefined),inactive
10,COC(=O)c1ccc(NC(=O)CNC(=O)c2sc3ccccc3c2Cl)cc1,"inconclusive: 20.6 µM [activator, single point]"
11,COc1ccc(C2=CN3CCCCC3CC2=O)cc1OC (centres undefined),"inconclusive: 18.3 µM [activator, partial curve]"
12,COc1ccc(Cl)cc1S(=O)(=O)N1CCCC(C(=O)NCc2ccncc2)C1 (centres undefined),inactive
13,CCC(C)C(=O)Nc1cc(C(=O)OC)cc(C(=O)OC)c1 (centres undefined),"inconclusive: 13 µM [inhibitor, partial curve, poor fit]"
14,Cc1cccc(-c2nc(C#N)c(N3CCCCCC3)o2)c1,"inconclusive: 16.4 µM [activator, partial curve]"
15,CC(=O)NC(c1ccco1)c1cc(Cl)c2ccc(Cl)nc2c1O (centres undefined),inactive
16,COc1ccc(N(CCC(=O)Nc2ccccc2F)S(=O)(=O)c2ccc(C)cc2C)cc1,"inconclusive: 1.3 µM [inhibitor, partial curve, poor fit]"
17,COc1ccccc1OCc1ccc(C(=O)NC(C)(C)C)o1,inactive
18,COc1ccc(N(CC(=O)NCCSCc2ccco2)S(=O)(=O)c2ccc(C)cc2)cc1,"inconclusive: 18.3 µM [inhibitor, partial curve, poor fit]"
19,CC(C(=O)NCCCc1ccccc1)n1cccc1C(=O)c1ccccc1 (centres undefined),inactive
20,CC(C)c1ccc(/C=C/C(=O)NCCCN2CCOCC2)cc1,"inconclusive: 32.6 µM [activator, single point]"
21,COc1ccc(-n2nnnc2-c2ccccc2)cc1,"inconclusive: 2.06 µM [inhibitor, partial curve, poor fit]"
22,O=C(N/N=C/c1ccc(O)c(O)c1)c1cc(-c2ccccc2)nc2ccccc12,inactive
23,Cc1ccc(C)c(N(C(=O)CNC(=O)c2ccco2)C(C(=O)NC2CCCCC2)c2ccncc2)c1 (centres undefined),inactive
24,CC(C)Cc1ccc(CN2CCCC(NC(=O)Cn3cnnn3)C2)cc1 (centres undefined),inactive
25,COc1cccc(N2CCN(CC(=O)Nc3ccccc3C(=O)NCCc3ccccc3)CC2)c1,"inconclusive: 29.1 µM [inhibitor, single point]"

row,SMILES,Potency
1,O=C(Nc1ccc(S(=O)(=O)N2CCCC2)cc1)c1cnccn1,inactive
2,CC1CCN(C(=O)COC(=O)C2CCN(S(=O)(=O)c3ccc4c(c3)OCCO4)CC2)CC1,inactive
3,COc1ccc(C(CC(=O)O)NC(=O)c2ccco2)cc1 (centres undefined),inactive
4,COc1ccc(CN2CCC(CO)(Cc3cccc(C(F)(F)F)c3)CC2)cc1Cn1cccn1,"inconclusive: 29.1 µM [inhibitor, single point]"
5,CCCCN(CCCC)CCNC(=O)c1ccc2nc(-c3ccccc3NC(C)=O)c(=O)[nH]c2c1,"inconclusive: 2.91 µM [activator, full curve, poor fit]"
6,Cc1ccc(C(=O)O/N=C/c2ccc(N(C)C)cc2)cc1,"inconclusive: 29.1 µM [activator, single point]"
7,O=C(NNS(=O)(=O)c1ccccc1[N+](=O)[O-])c1cccc(Cl)c1,inactive
8,CCCOc1cc(N)ccc1C(=O)OCCN(CC)CC,inactive
9,COc1ccc(-c2cc3onc(-c4c(Cl)cccc4Cl)c3c(=O)n2C)cc1,"inconclusive: 28.2 µM [inhibitor, single point]"
10,Cc1csc(NC(=O)c2sccc2C)n1,"inconclusive: 7.3 µM [activator, partial curve]"
11,O=C(CN1C(=O)CCSc2ccccc21)Nc1ccc2c(c1)OCO2,"inconclusive: 4.11 µM [inhibitor, partial curve, poor fit]"
12,Cc1cccc(NC(=O)c2nc[nH]c2C(=O)N(C)Cc2ccccc2)c1,"inconclusive: 9.2 µM [activator, partial curve, poor fit]"
13,O=C1COc2ccc(S(=O)(=O)Nc3ccc4c(c3)OCO4)cc2N1,"inconclusive: 23.1 µM [inhibitor, partial curve]"
14,O=C(CCN1C(=O)C2C3C=CC(C4CC34)C2C1=O)Oc1ccc(Br)cc1 (centres undefined),inactive
15,COc1cccc(-c2c(C(=O)N/N=C/c3cccnc3)nnn2-c2nonc2N)c1,inactive
16,CCCCN(C(=O)Cc1ccc2c(c1)OCCO2)c1c(N)n(CC(C)C)c(=O)[nH]c1=O,"inconclusive: 23.1 µM [activator, single point]"
17,O=[N+]([O-])c1ccc(C(O)C[n+]2ccccc2)cc1 (centres undefined),"inconclusive: 5.62 µM [inhibitor, full curve]"
18,Cc1nnc(NC(=O)c2ccccc2-c2ccccc2C(=O)O)s1,"inconclusive: 14.6 µM [activator, partial curve]"
19,O=C(NCCN1CCOCC1)c1cccn2c(=O)c3c4c(sc3nc12)CCCC4,inactive
20,FC(F)(F)c1nnc2ccc(N3CCN(c4ccccc4)CC3)nn12,"inconclusive: 18.4 µM [activator, single point]"
21,CCOc1ccc(C(C)(C)C)cc1S(=O)(=O)N1CC(C)OC(C)C1 (centres undefined),"inconclusive: 29.1 µM [inhibitor, single point]"
22,Cc1ccc(NS(=O)(=O)c2c(C(=O)N3CCCCCC3)c(C)n(C)c2C)c(C)c1,inactive
23,Cc1cccc(NC(=O)CN2CCN(C(=O)C3CCCO3)CC2)c1C (centres undefined),inactive
24,CCCCCn1c(=O)c(-c2nc3ccccc3[nH]2)c(O)c2ccccc21,active: 7.3 µM
